Laboratory results: PubChem BioAssay AID1159578 (Peter MacCallum Cancer Centre, 2015)

- Purpose: 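Genome-wide hunt for genes controlling movement of lymphatic endothelial cells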 (primary screen)
- Cells: human lymphatic endothelial cells
- Reagent: siRNA pool against human genes, 40 nM
- Duration: 48 h after transfection
- Read-out: 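High-content imaging of dye-stained cells in a scratch assay measures filled wound area and nuclei per well; duplicate means given as ratio to mock and robust z-score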
- Direction: migration robust z-score: higher = faster migration into the scratch; nuclei per well: higher = more cells in the well
- Rule for the call: 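Migration changed when robust z exceeds 2 or falls below -2 and mean nuclei number is at least 3300; otherwise not called changed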
- Meaning of the calls: active = migration changed; inactive = no migration change, or too few cells
This is an unselected part of about 18,000 deposited reagents. About 1,030 of them (5.7%) were called active. 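Inactive calls also include pools with fewer than 3300 nuclei, whose migration was not assessed.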 Raw values are not corrected between plates. Not all columns of the deposit are shown.

OXSR1 | migration robust z-score = 0.24; nuclei per well, duplicate mean = 5006; outcome = inactive
PIK3R4 | migration robust z-score = -4.7; nuclei per well, duplicate mean = 3122; outcome = inactive
ABHD11 | migration robust z-score = -0.6; nuclei per well, duplicate mean = 5722; outcome = inactive
CACNG8 | migration robust z-score = 0.21; nuclei per well, duplicate mean = 6072; outcome = inactive
GBP6 | migration robust z-score = -0.31; nuclei per well, duplicate mean = 6464; outcome = inactive
ZNF606 | migration robust z-score = -0.68; nuclei per well, duplicate mean = 7126; outcome = inactive
OR52K2 | migration robust z-score = -0.18; nuclei per well, duplicate mean = 6022; outcome = inactive
CD300LF | migration robust z-score = -0.55; nuclei per well, duplicate mean = 5692; outcome = inactive
KCNG2 | migration robust z-score = -0.78; nuclei per well, duplicate mean = 5012; outcome = inactive
KCNA2 | migration robust z-score = -0.05; nuclei per well, duplicate mean = 6046; outcome = inactive
GZMK | migration robust z-score = 0.76; nuclei per well, duplicate mean = 5400; outcome = inactive
ARFGAP3 | migration robust z-score = -0.05; nuclei per well, duplicate mean = 5765; outcome = inactive

Quoted from the entries so far, 2 entries:
OXSR1 | migration robust z-score = 0.24; nuclei per well, duplicate mean = 5006; outcome = inactive
PIK3R4 | migration robust z-score = -4.7; nuclei per well, duplicate mean = 3122; outcome = inactive
